{
  "source": "the supplement of paper PMC8728848",
  "binders": {"B1": {"name": "LlpA (Burkholderia cenocepacia) (protein)", "chain": "MGSSHHHHHHSSGLVPRGSHKILGSNETLSAGNVVYSDNGQYHLAMQTDGNLVVYGPTGAVWQSQTSGSGGNRAVMQGDGNLVIYRADNTAAWSSKTAHPGAFLAVQDDGNVVIYWPRPAWASNTSDPATQQSAESKYLASGSTMSAGQTVTVAQYMLVFQADGNLVLYKNGGNPIWSTGTQGKGATYAVMQSDGNFVIYAGSTALWSTKTNGANGAQLVLQSDGNLVIYAPTAAWSTKFGLVTAPTSTSTSNNGPGSGICVGVCPPHPLNGNPFSPVGVGTTGLGFPTPGYPGAAF"}},
  "test_in_all_cases": "glycan array binding signal (z-score within array); higher = stronger binding",
  "conditions_in_all_cases": "glycan notation: IUPAC condensed, linker removed",
  "key": {"Fuc(a1-2)Gal": {"target": "Fuc(a1-2)Gal", "in_short": "(§1)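 Columns mapping to the same glycan were averaged after glycan names were converted to IUPAC-condensed notation. The data come from 3228 arrays in the Consortium for Functional Glycomics database, limited to those with an available protein sequence. Binding is reported as a within-array Z-score averaged across arrays of one protein sequence and across linkers.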"}, "Fuc(a1-2)Gal(b1-3)GalNAc": {"target": "Fuc(a1-2)Gal(b1-3)GalNAc", "in_short": "as §1"}, "[1]": {"target": "Fuc(a1-2)Gal(b1-3)GalNAc(a1-3)[Fuc(a1-2)]Gal(b1-4)Glc", "in_short": "as §1"}, "[2]": {"target": "Fuc(a1-2)Gal(b1-3)GalNAc(a1-3)[Fuc(a1-2)]Gal(b1-4)GlcNAc", "in_short": "as §1"}, "[3]": {"target": "Fuc(a1-2)Gal(b1-3)GalNAc(b1-3)Gal", "in_short": "as §1"}, "[4]": {"target": "Fuc(a1-2)Gal(b1-3)GalNAc(b1-3)Gal(a1-4)Gal(b1-4)Glc", "in_short": "as §1"}, "[5]": {"target": "Fuc(a1-2)Gal(b1-3)GalNAc(b1-4)[Neu5Ac(a2-3)]Gal(b1-4)Glc", "in_short": "as §1"}, "Fuc(a1-2)Gal(b1-3)GlcNAc": {"target": "Fuc(a1-2)Gal(b1-3)GlcNAc", "in_short": "as §1"}, "[6]": {"target": "Fuc(a1-2)Gal(b1-3)GlcNAc(b1-2)Man(a1-3)[Fuc(a1-2)Gal(b1-3)GlcNAc(b1-2)Man(a1-6)]Man(b1-4)GlcNAc(b1-4)GlcNAc", "in_short": "as §1"}, "[7]": {"target": "Fuc(a1-2)Gal(b1-3)GlcNAc(b1-2)Man(a1-3)[Fuc(a1-2)Gal(b1-3)GlcNAc(b1-2)Man(a1-6)]Man(b1-4)GlcNAc(b1-4)[Fuc(a1-6)]GlcNAc", "in_short": "as §1"}, "[8]": {"target": "Fuc(a1-2)Gal(b1-3)GlcNAc(b1-3)Gal(b1-4)Glc", "in_short": "as §1"}, "[9]": {"target": "Fuc(a1-2)Gal(b1-3)GlcNAc(b1-3)GalNAc", "in_short": "as §1"}, "[10]": {"target": "Fuc(a1-2)Gal(b1-3)GlcNAc(b1-3)[Fuc(a1-2)Gal(b1-3)GlcNAc(b1-6)]GalNAc", "in_short": "as §1"}, "[11]": {"target": "Fuc(a1-2)Gal(b1-3)GlcNAc(b1-3)[Gal(b1-4)GlcNAc(b1-6)]Gal(b1-4)Glc", "in_short": "as §1"}, "[12]": {"target": "Fuc(a1-2)Gal(b1-3)GlcNAc(b1-3)[Neu5Ac(a2-6)Gal(b1-4)GlcNAc(b1-6)]Gal(b1-4)Glc", "in_short": "as §1"}, "[13]": {"target": "Fuc(a1-2)Gal(b1-3)GlcNAc6S", "in_short": "as §1"}, "[14]": {"target": "Fuc(a1-2)Gal(b1-3)[Fuc(a1-4)]GlcNAc", "in_short": "as §1"}, "[15]": {"target": "Fuc(a1-2)Gal(b1-3)[Fuc(a1-4)]GlcNAc(b1-2)Man(a1-3)[Fuc(a1-2)Gal(b1-3)[Fuc(a1-4)]GlcNAc(b1-2)Man(a1-3)]Man(b1-4)GlcNAc(b1-4)GlcNAc", "in_short": "as §1"}, "[16]": {"target": "Fuc(a1-2)Gal(b1-3)[Fuc(a1-4)]GlcNAc(b1-2)Man(a1-3)[Fuc(a1-2)Gal(b1-3)[Fuc(a1-4)]GlcNAc(b1-2)Man(a1-6)]Man(b1-4)GlcNAc(b1-4)[Fuc(a1-6)]GlcNAc(b1-4)[Fuc(a1-6)]GlcNAc", "in_short": "as §1"}, "[17]": {"target": "Fuc(a1-2)Gal(b1-3)[Fuc(a1-4)]GlcNAc(b1-3)[Fuc(a1-3)[Gal(b1-4)]GlcNAc(b1-6)]Gal(b1-4)Glc", "in_short": "as §1"}, "[18]": {"target": "Fuc(a1-2)Gal(b1-3)[Fuc(a1-4)]GlcNAc(b1-3)[Gal(b1-4)GlcNAc(b1-6)]Gal(b1-4)Glc", "in_short": "as §1"}, "[19]": {"target": "Fuc(a1-2)Gal(b1-4)Fuc(a1-3)]GlcNAc(b1-2)Man(a1-3)[Fuc(a1-2)Gal(b1-4)[Fuc(a1-3)]GlcNAc(b1-2)Man(a1-6)]Man(b1-4)GlcNAc(b1-4)GlcNAc", "in_short": "as §1"}, "Fuc(a1-2)Gal(b1-4)Glc": {"target": "Fuc(a1-2)Gal(b1-4)Glc", "in_short": "as §1"}, "Fuc(a1-2)Gal(b1-4)Glc6S": {"target": "Fuc(a1-2)Gal(b1-4)Glc6S", "in_short": "as §1"}, "Fuc(a1-2)Gal(b1-4)GlcNAc": {"target": "Fuc(a1-2)Gal(b1-4)GlcNAc", "in_short": "as §1"}, "[20]": {"target": "Fuc(a1-2)Gal(b1-4)GlcNAc(b1-2)Man", "in_short": "as §1"}, "[21]": {"target": "Fuc(a1-2)Gal(b1-4)GlcNAc(b1-2)Man(a1-3)[Fuc(a1-2)Gal(b1-4)GlcNAc(b1-2)Man(a1-6)]Man(b1-4)GlcNAc(b1-4)GlcNAc", "in_short": "as §1"}, "[22]": {"target": "Fuc(a1-2)Gal(b1-4)GlcNAc(b1-2)Man(a1-3)[Fuc(a1-2)Gal(b1-4)GlcNAc(b1-2)Man(a1-6)]Man(b1-4)GlcNAc(b1-4)[Fuc(a1-6)]GlcNAc", "in_short": "as §1"}, "[23]": {"target": "Fuc(a1-2)Gal(b1-4)GlcNAc(b1-2)[Fuc(a1-2)Gal(b1-4)GlcNAc(b1-4)]Man(a1-3)[Fuc(a1-2)Gal(b1-4)GlcNAc(b1-2)Man(a1-6)]Man(b1-4)GlcNAc(b1-4)GlcNAc", "in_short": "as §1"}, "[24]": {"target": "Fuc(a1-2)Gal(b1-4)GlcNAc(b1-3)Gal(b1-4)GlcNAc", "in_short": "as §1"}},
  "note": "This is one part of the list.",
  "data": [
    {"binder": "B1", "values": [
      {"measurement": "glycan array binding signal (z-score)", "setting": "Fuc(a1-2)Gal", "result": 1.82},
      {"measurement": "glycan array binding signal (z-score)", "setting": "Fuc(a1-2)Gal(b1-3)GalNAc", "result": 0.122},
      {"measurement": "glycan array binding signal (z-score)", "setting": "[1]", "result": 0.28},
      {"measurement": "glycan array binding signal (z-score)", "setting": "[2]", "result": -0.175},
      {"measurement": "glycan array binding signal (z-score)", "setting": "[3]", "result": 0.215},
      {"measurement": "glycan array binding signal (z-score)", "setting": "[4]", "result": -0.064},
      {"measurement": "glycan array binding signal (z-score)", "setting": "[5]", "result": 0.65},
      {"measurement": "glycan array binding signal (z-score)", "setting": "Fuc(a1-2)Gal(b1-3)GlcNAc", "result": 0.011},
      {"measurement": "glycan array binding signal (z-score)", "setting": "[6]", "result": 0.32},
      {"measurement": "glycan array binding signal (z-score)", "setting": "[7]", "result": 0.83},
      {"measurement": "glycan array binding signal (z-score)", "setting": "[8]", "result": -0.297},
      {"measurement": "glycan array binding signal (z-score)", "setting": "[9]", "result": -0.128},
      {"measurement": "glycan array binding signal (z-score)", "setting": "[10]", "result": -0.555},
      {"measurement": "glycan array binding signal (z-score)", "setting": "[11]", "result": -0.278},
      {"measurement": "glycan array binding signal (z-score)", "setting": "[12]", "result": -0.608},
      {"measurement": "glycan array binding signal (z-score)", "setting": "[13]", "result": -1.48},
      {"measurement": "glycan array binding signal (z-score)", "setting": "[14]", "result": -0.455},
      {"measurement": "glycan array binding signal (z-score)", "setting": "[15]", "result": 0.829},
      {"measurement": "glycan array binding signal (z-score)", "setting": "[16]", "result": 0.099},
      {"measurement": "glycan array binding signal (z-score)", "setting": "[17]", "result": -1.54},
      {"measurement": "glycan array binding signal (z-score)", "setting": "[18]", "result": -0.705},
      {"measurement": "glycan array binding signal (z-score)", "setting": "[19]", "result": 1.61},
      {"measurement": "glycan array binding signal (z-score)", "setting": "Fuc(a1-2)Gal(b1-4)Glc", "result": -0.279},
      {"measurement": "glycan array binding signal (z-score)", "setting": "Fuc(a1-2)Gal(b1-4)Glc6S", "result": -0.487},
      {"measurement": "glycan array binding signal (z-score)", "setting": "Fuc(a1-2)Gal(b1-4)GlcNAc", "result": 0.123},
      {"measurement": "glycan array binding signal (z-score)", "setting": "[20]", "result": 1.56},
      {"measurement": "glycan array binding signal (z-score)", "setting": "[21]", "result": -0.314},
      {"measurement": "glycan array binding signal (z-score)", "setting": "[22]", "result": 1.62},
      {"measurement": "glycan array binding signal (z-score)", "setting": "[23]", "result": -0.53},
      {"measurement": "glycan array binding signal (z-score)", "setting": "[24]", "result": -0.678}
    ]}
  ]
}
